Earlier results in patent US20170198292A1, “Methods and Compositions for Modulating Lung Cancer Tumor Initiating Cells (TIC), and Oxytocin Receptor (OXTR) Modulatory Agents for Use in Practicing the Same” (The Board of Trustees of the Leland Stanford Junior …, priority 2014, published 2017).
At least one read-out could not be matched to a standard name with certainty.

Conditions: cited from earlier work

COc1cc(OC2CCN(C(C)=O)CC2)ccc1C(=O)N1CCC(N2C(=O)OCc3ccccc32)CC1 [L-371,257, 1-[4-[(1-Acetyl-4-piperidinyl)oxy]-2-methoxybenzoyl]-4-(2-oxo-2H-3,1-benzoxazin-1(4H)-yl)piperidine]
permeability across the blood brain barrier (BBB): low permeability
